The results in this text go back to paper PMC4630568, “Arabidopsis LEAFY COTYLEDON1 controls cell fate determination during post-embryonic development” (Frontiers in Plant Science, 2015).

This assay has as its target T1, LEC1 (LEAFY COTYLEDON1), yeast two-hybrid fusion in pGBKT7 (Arabidopsis) (UniProt Q9SFD8).
T1 sequence: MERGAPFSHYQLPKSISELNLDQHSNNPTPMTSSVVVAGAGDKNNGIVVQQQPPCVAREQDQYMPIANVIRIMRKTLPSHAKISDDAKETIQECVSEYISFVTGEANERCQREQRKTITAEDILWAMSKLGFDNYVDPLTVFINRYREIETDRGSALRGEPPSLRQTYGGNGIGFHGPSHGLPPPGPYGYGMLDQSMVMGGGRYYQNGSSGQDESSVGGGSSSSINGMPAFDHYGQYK
The experiment in a line: two-hybrid; yeast AH109; LEC1 in pGBKT7 (bait), TCL2 in pGADT7 (prey); growth on SD/-Trp/-Leu/-His/-Ade medium.

Results are given in words; binding and its absence hold for the method and conditions named. Some entries that bind do so weakly or less than the wild type. Where a sequence is shown, tags or fusion partners need not be part of it.

B1: TCL2, yeast two-hybrid fusion in pGADT7 (protein, UniProt B3H4X8 1-100)
chain: MDNTNRLRHLRSRKQSKFTLGDTAEVNSVKWEFINMTEQEEDLIFRMHRLVGDRWDLIAGRVVGREAKDIERYWIMRNCDHCSHKRRRVHKFYRFSISPP
In the case of B1, the binding result was “binds”.
